Data taken from patent US20230059181A1.
Changes are numbered by the printed parent chain. In names and notes the source's numbering stands. These are yes or no findings as the source states them, for the method shown. Some results given as binding are weak or reduced against the parent protein; the word gives no strength.

Amino acid sequences for entries named in this document (tags omitted). Residues count along the entry.
UniProt O75015, residues 17-200: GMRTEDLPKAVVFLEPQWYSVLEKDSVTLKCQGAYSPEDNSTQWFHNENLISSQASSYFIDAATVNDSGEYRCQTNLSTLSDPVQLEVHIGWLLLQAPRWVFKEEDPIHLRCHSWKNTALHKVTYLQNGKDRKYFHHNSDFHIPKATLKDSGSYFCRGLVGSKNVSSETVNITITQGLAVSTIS

Legend:
[1] = target: Human CD16B (FcγRIIIB), His-tagged (human) (UniProt O75015); experiment: SPR single cycle, relative binding grade
[2] = target: Human CD16B (FcγRIIIB), His-tagged (human) (UniProt O75015); experiment: SPR single cycle, His-tagged receptor captured, antibody as analyte

B1: HMW-MAA_IGEG-dFcRn (antibody, human IgG1, kappa)
heavy: EVQLVQSGGGLVQPGGSLKLSCAVSGFTFSNYWMNWVRQAPGKGLEWVGEIRLKSNNFGRYYAESVKGRFTISRDDSKNTAYLQMNSLKTEDTAVYYCTSYGNYVGHYFDHWGQGTLVTVSSASTQSPSVFPLTRCCKNIPSNATSVTLGCLATGYFPEPVMVTWDTGSLNGTTMTLPATTLTLSGHYATISLLTVSGAWAKQMFTCRVAHTPSSTDWVDNKTFSVCSRDFTPPTVKILQSSCDGGGHFPPTIQLLCLVSGYTPGTINITWLEDGQVMDVDLSTASTTQEGELASTQSELTLSQKHWLSDRTYTCQVTYQGHTFEDSTKKCADSNPRGVSAYLSRPSPFDLFIRKSPTITCLVVDLAPSKGTVNLTWSRASGKPVNHSTRKEEKQRNGTLTVTSTLPVGTRDWIEGETYQCRVTHPHLPRALMRSTTKTSGPRAAPEVYAFATPEWPGSRDKRTLACLIQNFMPEDISVQWLHNEVQLPDARHSTTQPRKTKGSGFFVFSRLEVTRAEWEQKDEFICRAVHEAASPSQTVQRAVSVNPGKRSEPKSCDKTHTCPPCPAPELLGGPSVFLFPPKPKDTLMASRTPEVTCVVVDVSHEDPEVKFNWYVDGVEVHNAKTKPREEQYNSTYRVVSVLTVLAQDWLNGKEYKCKVSNKALPAPIEKTISKAKGQPREPQVYTLPPSREEMTKNQVSLTCLVKGFYPSDIAVEWESNGQPENNYKTTPPVLDSDGSFFLYSKLTVDKSRWQQGNVFSCSVMHEALHNAYTQKSLSLSPGK
light: DIQLTQSPSFLSASVGDRVTITCKASQNVDTNVAWYQQKPGKAPKPLLFSASYRYTGVPSRFSGSGSGTDFTLTISSLQPEDFATYFCQQYNSYPLTFGGGTKVEIKRTVAAPSVFIFPPSDEQLKSGTASVVCLLNNFYPREAKVQWKVDNALQSGNSQESVTEQDSKDSTYSLSSTLTLSKADYEKHKVYACEVTHQGLSSPVTKSFNRGEC
In the case of B1, the binding [1] is reported as “binds” and the binding [2] is reported as “binds”.

B2: HMW-MAA_IGEG-C220S-dFcRn (antibody)
heavy: B1 heavy with C557S
light: B1 light
With B2 the binding [1] was “binds” and the binding [2] was “binds”.
